Measured values from paper PMC5800818.
No constants are given. Whether binding was seen depends on the method and setting. In cells and extracts the contact can be indirect. A result given as binding can be weak or reduced; the word gives no strength. Where a sequence is shown, tags or fusion partners need not be part of it.

Legend:
[1] = molecular target: T1, FLAG–Numb-1 (human Numb isoform-1, full length) (human) (UniProt P49757); assay: co-IP; HEK293 cells cotransfected with Mdm2 constructs and FLAG-tagged Numb constructs; anti-FLAG IP, immunoblot; in Fig. 1 A with siRNA against p53 or control oligonucleotides
T1 sequence: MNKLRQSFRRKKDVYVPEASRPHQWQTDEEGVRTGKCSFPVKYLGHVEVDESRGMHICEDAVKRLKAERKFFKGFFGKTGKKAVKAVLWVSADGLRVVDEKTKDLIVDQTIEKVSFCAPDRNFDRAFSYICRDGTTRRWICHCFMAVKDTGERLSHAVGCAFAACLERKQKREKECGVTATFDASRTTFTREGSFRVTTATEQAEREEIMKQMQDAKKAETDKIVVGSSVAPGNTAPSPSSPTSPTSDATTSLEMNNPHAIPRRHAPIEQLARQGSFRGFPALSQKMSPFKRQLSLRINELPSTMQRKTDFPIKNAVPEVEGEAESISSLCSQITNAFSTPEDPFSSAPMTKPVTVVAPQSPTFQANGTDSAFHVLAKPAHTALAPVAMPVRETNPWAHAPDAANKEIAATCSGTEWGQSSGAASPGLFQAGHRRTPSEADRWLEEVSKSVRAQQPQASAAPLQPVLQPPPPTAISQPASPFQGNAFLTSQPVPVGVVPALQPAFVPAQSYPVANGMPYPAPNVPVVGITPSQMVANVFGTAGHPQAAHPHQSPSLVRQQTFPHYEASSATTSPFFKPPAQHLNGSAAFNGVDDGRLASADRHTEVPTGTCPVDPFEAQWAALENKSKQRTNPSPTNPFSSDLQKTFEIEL

[2] = molecular target: T2, FLAG-tagged Numb isoform-3 (full length) (human) (UniProt P49757); assay: as above
T2 sequence: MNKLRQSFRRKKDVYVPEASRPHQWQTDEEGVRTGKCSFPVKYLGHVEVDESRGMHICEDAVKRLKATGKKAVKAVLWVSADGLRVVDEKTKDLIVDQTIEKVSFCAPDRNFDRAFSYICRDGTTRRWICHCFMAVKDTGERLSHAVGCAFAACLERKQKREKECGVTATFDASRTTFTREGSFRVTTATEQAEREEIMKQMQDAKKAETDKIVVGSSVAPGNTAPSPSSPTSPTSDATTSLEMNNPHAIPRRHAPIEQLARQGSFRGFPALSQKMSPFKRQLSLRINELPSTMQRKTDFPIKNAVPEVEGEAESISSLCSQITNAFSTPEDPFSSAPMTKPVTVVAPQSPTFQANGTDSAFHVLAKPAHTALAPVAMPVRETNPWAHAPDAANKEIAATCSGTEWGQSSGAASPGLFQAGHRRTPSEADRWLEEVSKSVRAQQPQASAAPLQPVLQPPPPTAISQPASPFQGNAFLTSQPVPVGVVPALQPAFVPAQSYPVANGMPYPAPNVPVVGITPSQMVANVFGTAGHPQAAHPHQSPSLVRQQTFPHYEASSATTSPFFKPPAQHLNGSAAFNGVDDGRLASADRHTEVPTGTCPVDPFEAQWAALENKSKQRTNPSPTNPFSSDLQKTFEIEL

binding [1]	binding [2]	Substance
binds	–	catalytically inactive Mdm2-C464A mutant (from UniProt Q00987-11)
binds	binds	β-Adaptin (human (endogenous in HEK293))
